Measured values: patent US9550768B2, “Kinase modulation and indications therefor” (PLEXXIKON INC., priority 2011, dated 2017)
Some of these results come from one statement about several compounds together.

Target: T1, FLT3-ITD (Homo sapiens, UniProt P36888)
T1 sequence (P36888 with tags, fused parts or gaps INS600HVDFREYEYD): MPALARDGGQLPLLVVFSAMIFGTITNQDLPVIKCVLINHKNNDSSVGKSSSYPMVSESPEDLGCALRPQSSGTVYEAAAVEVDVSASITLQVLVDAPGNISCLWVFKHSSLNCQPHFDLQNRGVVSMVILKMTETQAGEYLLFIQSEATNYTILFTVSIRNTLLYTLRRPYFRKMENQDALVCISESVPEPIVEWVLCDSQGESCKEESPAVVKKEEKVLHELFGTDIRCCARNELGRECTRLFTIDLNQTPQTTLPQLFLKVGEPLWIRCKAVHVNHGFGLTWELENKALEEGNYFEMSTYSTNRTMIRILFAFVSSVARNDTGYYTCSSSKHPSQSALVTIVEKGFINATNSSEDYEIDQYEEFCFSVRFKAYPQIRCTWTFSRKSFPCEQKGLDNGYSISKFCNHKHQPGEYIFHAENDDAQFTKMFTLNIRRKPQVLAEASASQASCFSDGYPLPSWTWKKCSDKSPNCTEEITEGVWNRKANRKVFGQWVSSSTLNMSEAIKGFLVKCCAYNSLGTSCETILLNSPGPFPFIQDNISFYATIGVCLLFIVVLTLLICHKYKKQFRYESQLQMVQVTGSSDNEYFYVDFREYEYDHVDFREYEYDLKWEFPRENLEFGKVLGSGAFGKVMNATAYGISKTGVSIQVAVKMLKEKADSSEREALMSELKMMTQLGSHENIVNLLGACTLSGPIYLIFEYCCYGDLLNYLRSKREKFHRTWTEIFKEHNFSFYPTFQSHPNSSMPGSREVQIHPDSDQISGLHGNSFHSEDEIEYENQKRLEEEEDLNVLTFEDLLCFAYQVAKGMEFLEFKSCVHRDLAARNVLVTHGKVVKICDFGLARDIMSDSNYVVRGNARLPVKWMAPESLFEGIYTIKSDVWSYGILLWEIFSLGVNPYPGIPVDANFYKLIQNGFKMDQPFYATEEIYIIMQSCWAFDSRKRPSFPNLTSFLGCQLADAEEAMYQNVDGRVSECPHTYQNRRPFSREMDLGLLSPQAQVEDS
Test: Flt3 assays described in Example 3 (cell-based assays of Flt3-ITD kinase activity in MV-4-11 cells)
Settings: read-out: IC50 in the Flt3 assays described above in Example 3

Row | Structure (SMILES) | IC50
1 | COc1ccc(CNc2ccc(Cc3c[nH]c4ncc(F)cc34)cn2)cn1 [Compound P-0331, [5-(5-Fluoro-1H-pyrrolo[2,3-b]pyridin-3-ylmethyl)-pyridin-2-yl]-(6-methoxy-pyridin-3-ylmethyl)-amine] | < 1000 nM
2 | COc1cnc2[nH]cc(Cc3ccc(NCc4ccc(OC)nc4)nc3)c2c1 [Compound P-0332, (6-Methoxy-pyridin-3-ylmethyl)-[5-(5-methoxy-1H-pyrrolo[2,3-b]pyridin-3-ylmethyl)-pyridin-2-yl]-amine] | < 1000 nM
3 | COc1cnc2[nH]cc(Cc3ccc(NCc4c(F)cccc4F)nc3)c2c1 [Compound P-0334, (2,6-Difluoro-benzyl)-[5-(5-methoxy-1H-pyrrolo[2,3-b]pyridin-3-ylmethyl)-pyridin-2-yl]-amine] | < 1000 nM
4 | COc1ccccc1CNc1ccc(Cc2c[nH]c3ncccc23)cn1 [Compound P-0336, (2-Methoxy-benzyl)-[5-(1H-pyrrolo[2,3-b]pyridin-3-ylmethyl)-pyridin-2-yl]-amine] | < 1000 nM
5 | COc1ccccc1CNc1ccc(Cc2c[nH]c3ncc(C#N)cc23)cn1 [Compound P-0337, 3-[6-(2-Methoxy-benzylamino)-pyridin-3-ylmethyl]-1H-pyrrolo[2,3-b]pyridine-5-carbonitrile] | < 1000 nM
6 | FC(F)Oc1ccccc1CNc1ccc(Cc2c[nH]c3ncc(Cl)cc23)cn1 [Compound P-0338, [5-(5-Chloro-1H-pyrrolo[2,3-b]pyridin-3-ylmethyl)-pyridin-2-yl]-(2-difluoromethoxy-benzyl)-amine] | < 1000 nM
7 | N#Cc1cnc2[nH]cc(Cc3ccc(NCc4ccccc4OC(F)F)nc3)c2c1 [Compound P-0339, 3-[6-(2-Difluoromethoxy-benzylamino)-pyridin-3-ylmethyl]-1H-pyrrolo[2,3-b]pyridine-5-carbonitrile] | < 1000 nM
8 | Fc1cccc(F)c1CNc1ccc(Cc2c[nH]c3ncccc23)cn1 [Compound P-0340, (2,6-Difluoro-benzyl)-[5-(1H-pyrrolo[2,3-b]pyridin-3-ylmethyl)-pyridin-2-yl]-amine] | < 1000 nM
9 | Cc1cnc2[nH]cc(Cc3ccc(NCc4c(F)cccc4F)nc3)c2c1 [Compound P-0341, (2,6-Difluoro-benzyl)-[5-(5-methyl-1H-pyrrolo[2,3-b]pyridin-3-ylmethyl)-pyridin-2-yl]-amine] | < 1000 nM
10 | Clc1ccc(CNc2ccc(Cc3c[nH]c4ncccc34)cn2)c(Cl)c1 [Compound P-0342, (2,4-Dichloro-benzyl)-[5-(1H-pyrrolo[2,3-b]pyridin-3-ylmethyl)-pyridin-2-yl]-amine] | < 1000 nM
11 | Fc1cccc(CNc2ccc(Cc3c[nH]c4ncccc34)cn2)c1 [Compound P-0343, (3-Fluoro-benzyl)-[5-(1H-pyrrolo[2,3-b]pyridin-3-ylmethyl)-pyridin-2-yl]-amine] | < 1000 nM
12 | Fc1cc(C(F)(F)F)ccc1CNc1ccc(Cc2c[nH]c3ncccc23)cn1 [Compound P-0344, (2-Fluoro-4-trifluoromethyl-benzyl)-[5-(1H-pyrrolo[2,3-b]pyridin-3-ylmethyl)-pyridin-2-yl]-amine] | < 1000 nM
13 | Fc1cc(Cl)ccc1CNc1ccc(Cc2c[nH]c3ncccc23)cn1 [Compound P-0345, (4-Chloro-2-fluoro-benzyl)-[5-(1H-pyrrolo[2,3-b]pyridin-3-ylmethyl)-pyridin-2-yl]-amine] | < 1000 nM
14 | Fc1cc(CNc2ccc(Cc3c[nH]c4ncccc34)cn2)cc(C(F)(F)F)c1 [Compound P-0346, (3-Fluoro-5-trifluoromethyl-benzyl)-[5-(1H-pyrrolo[2,3-b]pyridin-3-ylmethyl)-pyridin-2-yl]-amine] | < 1000 nM
15 | c1cnc(N2CCOCC2)c(CNc2ccc(Cc3c[nH]c4ncccc34)cn2)c1 [Compound P-0347, (2-Morpholin-4-yl-pyridin-3-ylmethyl)-[5-(1H-pyrrolo[2,3-b]pyridin-3-ylmethyl)-pyridin-2-yl]-amine] | < 1000 nM
16 | FC(F)(F)c1cc(CNc2ccc(Cc3c[nH]c4ncccc34)cn2)ccc1Cl [Compound P-0348, (4-Chloro-3-trifluoromethyl-benzyl)-[5-(1H-pyrrolo[2,3-b]pyridin-3-ylmethyl)-pyridin-2-yl]-amine] | < 1000 nM
17 | Fc1ccc(C(F)(F)F)cc1CNc1ccc(Cc2c[nH]c3ncccc23)cn1 [Compound P-0350, (2-Fluoro-5-trifluoromethyl-benzyl)-[5-(1H-pyrrolo[2,3-b]pyridin-3-ylmethyl)-pyridin-2-yl]-amine] | < 1000 nM

Row | Structure (SMILES) | IC50
18 | Clc1cccc(CNc2ccc(Cc3c[nH]c4ncccc34)cn2)c1Cl [Compound P-0351, (2,3-Dichloro-benzyl)-[5-(1H-pyrrolo[2,3-b]pyridin-3-ylmethyl)-pyridin-2-yl]-amine] | < 1000 nM
19 | COc1cccc(CNc2ccc(Cc3c[nH]c4ncccc34)cn2)c1F [Compound P-0352, (2-Fluoro-3-methoxy-benzyl)-[5-(1H-pyrrolo[2,3-b]pyridin-3-ylmethyl)-pyridin-2-yl]-amine] | < 1000 nM
20 | Fc1c(Cl)cccc1CNc1ccc(Cc2c[nH]c3ncccc23)cn1 [Compound P-0354, (3-Chloro-2-fluoro-benzyl)-[5-(1H-pyrrolo[2,3-b]pyridin-3-ylmethyl)-pyridin-2-yl]-amine] | < 1000 nM
21 | Fc1ccc(CNc2ccc(Cc3c[nH]c4ncccc34)cn2)nc1 [Compound P-0355, (5-Fluoro-pyridin-2-ylmethyl)-[5-(1H-pyrrolo[2,3-b]pyridin-3-ylmethyl)-pyridin-2-yl]-amine] | < 1000 nM
22 | Fc1cc(F)cc(CNc2ccc(Cc3c[nH]c4ncccc34)cn2)c1 [Compound P-0356, (3,5-Difluoro-benzyl)-[5-(1H-pyrrolo[2,3-b]pyridin-3-ylmethyl)-pyridin-2-yl]-amine] | < 1000 nM
23 | CCCOc1ccccc1CNc1ccc(Cc2c[nH]c3ncccc23)cn1 [Compound P-0357, (2-Propoxy-benzyl)-[5-(1H-pyrrolo[2,3-b]pyridin-3-ylmethyl)-pyridin-2-yl]-amine] | < 1000 nM
24 | c1ccc(N2CCOCC2)c(CNc2ccc(Cc3c[nH]c4ncccc34)cn2)c1 [Compound P-0358, (2-Morpholin-4-yl-benzyl)-[5-(1H-pyrrolo[2,3-b]pyridin-3-ylmethyl)-pyridin-2-yl]-amine] | < 1000 nM
25 | COc1cccc(CNc2ccc(Cc3c[nH]c4ncccc34)cn2)c1Cl [Compound P-0359, (2-Chloro-3-methoxy-benzyl)-[5-(1H-pyrrolo[2,3-b]pyridin-3-ylmethyl)-pyridin-2-yl]-amine] | < 1000 nM
26 | c1ccc(OCCN2CCOCC2)c(CNc2ccc(Cc3c[nH]c4ncccc34)cn2)c1 [Compound P-0361, [2-(2-Morpholin-4-yl-ethoxy)-benzyl]-[5-(1H-pyrrolo[2,3-b]pyridin-3-ylmethyl)-pyridin-2-yl]-amine] | < 1000 nM
27 | Fc1cccc(CNc2ccc(Cc3c[nH]c4ncccc34)cn2)c1F [Compound P-0362, (2,3-Difluoro-benzyl)-[5-(1H-pyrrolo[2,3-b]pyridin-3-ylmethyl)-pyridin-2-yl]-amine] | < 1000 nM
28 | FC(F)(F)c1cccc(CNc2ccc(Cc3c[nH]c4ncccc34)cn2)c1Cl [Compound P-0363, (2-Chloro-3-trifluoromethyl-benzyl)-[5-(1H-pyrrolo[2,3-b]pyridin-3-ylmethyl)-pyridin-2-yl]-amine] | < 1000 nM
29 | Fc1c(CNc2ccc(Cc3c[nH]c4ncccc34)cn2)cccc1C(F)(F)F [Compound P-0365, (2-Fluoro-3-trifluoromethyl-benzyl)-[5-(1H-pyrrolo[2,3-b]pyridin-3-ylmethyl)-pyridin-2-yl]-amine] | < 1000 nM
30 | COc1ccc(F)cc1CNc1ccc(Cc2c[nH]c3ncccc23)cn1 [Compound P-0366, (5-Fluoro-2-methoxy-benzyl)-[5-(1H-pyrrolo[2,3-b]pyridin-3-ylmethyl)-pyridin-2-yl]-amine] | < 1000 nM
31 | FC(F)Oc1ccccc1CNc1ccc(Cc2c[nH]c3ncccc23)cn1 [Compound P-0367, (2-Difluoromethoxy-benzyl)-[5-(1H-pyrrolo[2,3-b]pyridin-3-ylmethyl)-pyridin-2-yl]-amine] | < 1000 nM
32 | Cc1ccc(CNc2ccc(Cc3c[nH]c4ncccc34)cn2)c(F)c1 [Compound P-0368, (2-Fluoro-4-methyl-benzyl)-[5-(1H-pyrrolo[2,3-b]pyridin-3-ylmethyl)-pyridin-2-yl]-amine] | < 1000 nM
33 | CN(C)CCCOc1ccccc1CNc1ccc(Cc2c[nH]c3ncccc23)cn1 [Compound P-0369, [2-(3-Dimethylamino-propoxy)-benzyl]-[5-(1H-pyrrolo[2,3-b]pyridin-3-ylmethyl)-pyridin-2-yl]-amine] | < 1000 nM
34 | COc1ccc(CNc2ccc(Cc3c[nH]c4ncccc34)cn2)c(OC)n1 [Compound P-0370, (2,6-Dimethoxy-pyridin-3-ylmethyl)-[5-(1H-pyrrolo[2,3-b]pyridin-3-ylmethyl)-pyridin-2-yl]-amine] | < 1000 nM
